Measured values: patent US8697385
Results are given in words; binding and its absence hold for the method and conditions named. Binding seen in cells or lysates may run through a third protein. Some binding calls cover weakened binding; strength is not graded here. Tags and fused reporters may be left off the sequences shown.

Chains of the proteins cited; added tags and fusions are not shown. Residues count along the entry.
UniProt P35580: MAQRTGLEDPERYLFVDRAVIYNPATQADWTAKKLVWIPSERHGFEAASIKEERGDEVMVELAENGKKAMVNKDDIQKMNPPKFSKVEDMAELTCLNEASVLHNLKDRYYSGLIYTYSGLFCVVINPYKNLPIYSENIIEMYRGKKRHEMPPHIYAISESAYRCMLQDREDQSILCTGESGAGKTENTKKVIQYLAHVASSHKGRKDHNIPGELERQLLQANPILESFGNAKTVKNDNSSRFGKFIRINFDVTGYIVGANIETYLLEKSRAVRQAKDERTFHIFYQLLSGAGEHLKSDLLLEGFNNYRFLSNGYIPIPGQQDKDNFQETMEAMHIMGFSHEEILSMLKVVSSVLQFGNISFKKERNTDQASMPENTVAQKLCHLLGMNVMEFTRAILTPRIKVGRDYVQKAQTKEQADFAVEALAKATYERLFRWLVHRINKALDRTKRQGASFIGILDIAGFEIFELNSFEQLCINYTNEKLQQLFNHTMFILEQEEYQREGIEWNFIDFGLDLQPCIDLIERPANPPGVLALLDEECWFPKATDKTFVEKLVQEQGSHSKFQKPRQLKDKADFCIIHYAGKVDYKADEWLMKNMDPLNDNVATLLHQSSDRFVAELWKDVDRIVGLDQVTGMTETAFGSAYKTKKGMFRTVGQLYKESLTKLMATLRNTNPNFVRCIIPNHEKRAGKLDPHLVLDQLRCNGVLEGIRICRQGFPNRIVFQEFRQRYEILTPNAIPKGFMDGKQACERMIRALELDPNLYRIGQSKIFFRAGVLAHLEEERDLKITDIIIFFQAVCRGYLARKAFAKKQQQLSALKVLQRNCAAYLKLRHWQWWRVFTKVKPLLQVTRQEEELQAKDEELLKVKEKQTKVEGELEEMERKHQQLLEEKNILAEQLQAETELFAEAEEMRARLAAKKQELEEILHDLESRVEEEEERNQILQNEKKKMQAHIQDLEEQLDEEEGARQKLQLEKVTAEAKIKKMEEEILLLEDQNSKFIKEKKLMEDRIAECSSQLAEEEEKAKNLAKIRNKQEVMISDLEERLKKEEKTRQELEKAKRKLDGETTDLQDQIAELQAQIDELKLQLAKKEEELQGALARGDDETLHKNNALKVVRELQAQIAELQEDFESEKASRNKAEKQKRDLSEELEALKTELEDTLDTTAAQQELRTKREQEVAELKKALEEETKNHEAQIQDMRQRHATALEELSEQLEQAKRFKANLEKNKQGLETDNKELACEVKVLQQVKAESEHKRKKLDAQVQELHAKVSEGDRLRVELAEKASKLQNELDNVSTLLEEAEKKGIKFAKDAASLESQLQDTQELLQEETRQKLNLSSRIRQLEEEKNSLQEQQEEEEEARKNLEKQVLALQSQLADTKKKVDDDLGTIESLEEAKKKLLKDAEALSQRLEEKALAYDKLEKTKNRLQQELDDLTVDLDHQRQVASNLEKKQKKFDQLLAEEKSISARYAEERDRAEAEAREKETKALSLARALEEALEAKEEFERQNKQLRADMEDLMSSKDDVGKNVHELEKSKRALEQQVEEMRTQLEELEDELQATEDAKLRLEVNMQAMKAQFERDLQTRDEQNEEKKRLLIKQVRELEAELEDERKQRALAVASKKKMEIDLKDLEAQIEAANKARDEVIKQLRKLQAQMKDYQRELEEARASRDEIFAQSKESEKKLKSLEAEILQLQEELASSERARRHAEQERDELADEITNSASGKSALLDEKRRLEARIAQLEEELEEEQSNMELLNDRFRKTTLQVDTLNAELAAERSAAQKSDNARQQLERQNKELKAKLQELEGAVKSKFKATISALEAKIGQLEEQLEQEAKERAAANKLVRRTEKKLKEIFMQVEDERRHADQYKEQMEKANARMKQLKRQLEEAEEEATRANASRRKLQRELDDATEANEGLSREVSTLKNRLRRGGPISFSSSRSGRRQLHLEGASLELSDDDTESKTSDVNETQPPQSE
UniProt P35579, residues 2-1960: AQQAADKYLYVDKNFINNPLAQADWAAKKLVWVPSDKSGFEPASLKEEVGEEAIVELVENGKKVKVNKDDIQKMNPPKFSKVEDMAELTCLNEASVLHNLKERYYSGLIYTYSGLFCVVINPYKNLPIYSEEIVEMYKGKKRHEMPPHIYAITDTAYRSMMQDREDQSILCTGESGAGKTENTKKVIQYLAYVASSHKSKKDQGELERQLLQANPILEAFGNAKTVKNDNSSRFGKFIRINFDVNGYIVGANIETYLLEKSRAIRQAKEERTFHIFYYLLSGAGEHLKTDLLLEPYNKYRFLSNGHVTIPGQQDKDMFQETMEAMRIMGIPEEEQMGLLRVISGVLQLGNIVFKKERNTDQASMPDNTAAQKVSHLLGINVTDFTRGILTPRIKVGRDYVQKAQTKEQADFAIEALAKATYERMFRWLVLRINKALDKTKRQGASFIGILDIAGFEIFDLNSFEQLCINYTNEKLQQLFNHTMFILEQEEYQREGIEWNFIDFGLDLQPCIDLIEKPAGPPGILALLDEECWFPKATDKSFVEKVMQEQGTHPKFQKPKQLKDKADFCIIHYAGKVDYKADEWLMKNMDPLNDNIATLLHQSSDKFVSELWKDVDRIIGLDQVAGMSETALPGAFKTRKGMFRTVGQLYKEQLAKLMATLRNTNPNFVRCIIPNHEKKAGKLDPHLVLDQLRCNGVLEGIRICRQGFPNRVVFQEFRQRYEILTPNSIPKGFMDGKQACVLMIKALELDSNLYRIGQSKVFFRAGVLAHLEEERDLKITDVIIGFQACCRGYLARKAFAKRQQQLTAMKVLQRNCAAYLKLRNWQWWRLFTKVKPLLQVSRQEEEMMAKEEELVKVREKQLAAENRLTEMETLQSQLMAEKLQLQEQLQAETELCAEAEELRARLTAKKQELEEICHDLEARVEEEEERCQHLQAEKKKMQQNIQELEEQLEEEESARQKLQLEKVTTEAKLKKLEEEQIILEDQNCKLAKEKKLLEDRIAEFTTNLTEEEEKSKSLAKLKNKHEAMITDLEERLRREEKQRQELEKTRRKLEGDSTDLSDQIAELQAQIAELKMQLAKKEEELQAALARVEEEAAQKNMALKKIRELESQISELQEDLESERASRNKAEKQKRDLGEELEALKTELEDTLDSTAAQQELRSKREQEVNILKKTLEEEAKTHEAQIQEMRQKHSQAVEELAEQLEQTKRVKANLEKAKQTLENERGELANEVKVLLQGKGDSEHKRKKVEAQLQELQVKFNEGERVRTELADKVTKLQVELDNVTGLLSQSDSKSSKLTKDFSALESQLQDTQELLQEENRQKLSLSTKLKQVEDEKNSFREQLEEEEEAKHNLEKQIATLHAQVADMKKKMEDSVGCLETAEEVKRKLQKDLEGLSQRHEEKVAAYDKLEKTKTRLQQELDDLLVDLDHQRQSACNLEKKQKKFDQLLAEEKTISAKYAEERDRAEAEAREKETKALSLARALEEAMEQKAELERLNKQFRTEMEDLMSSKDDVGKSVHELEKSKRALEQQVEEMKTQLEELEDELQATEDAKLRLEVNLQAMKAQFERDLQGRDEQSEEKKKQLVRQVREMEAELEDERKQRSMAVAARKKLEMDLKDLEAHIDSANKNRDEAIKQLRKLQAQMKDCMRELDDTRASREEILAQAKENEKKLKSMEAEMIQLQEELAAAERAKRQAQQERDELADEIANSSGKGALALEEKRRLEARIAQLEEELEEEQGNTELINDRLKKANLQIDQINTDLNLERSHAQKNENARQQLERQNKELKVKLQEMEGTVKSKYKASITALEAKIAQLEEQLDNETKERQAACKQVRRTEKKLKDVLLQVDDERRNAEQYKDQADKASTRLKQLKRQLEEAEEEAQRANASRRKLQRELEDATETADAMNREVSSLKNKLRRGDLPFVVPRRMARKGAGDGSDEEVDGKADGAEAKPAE

What was measured:
[1] = molecular target: nonmuscle myosin IIB (human) (UniProt P35580); assay: co-immunoprecipitation with anti-HA antibody, lysate treated with RNase A or untreated (legend of FIG. 2d)
[2] = molecular target: nonmuscle myosin IIA (human) (UniProt P35579); assay: co-immunoprecipitation with anti-HA antibody from human lung fibroblasts, Western blot with anti-myosin IIA
[3] = molecular target: nonmuscle myosin IIB (human) (UniProt P35580); assay: co-immunoprecipitation with anti-HA antibody from human lung fibroblasts, Western blot with anti-myosin IIB
[4] = molecular target: nonmuscle myosin IIB (human) (UniProt P35580); assay: co-immunoprecipitation of HA-tagged LARP6 from control and ML-7-treated lung fibroblasts (legend of FIG. 5b)
[5] = molecular target: nonmuscle myosin IIB (human) (UniProt P35580); assay: co-immunoprecipitation with anti-HA antibody, with or without RNase A digestion, Western blot with anti-myosin IIB
[6] = molecular target: nonmuscle myosin IIB (human) (UniProt P35580); assay: co-immunoprecipitation with anti-HA antibody from control and ML-7-treated lung fibroblasts, Western blot with anti-myosin IIB
[7] = molecular target: nonmuscle myosin IIB (human) (UniProt P35580); assay: co-immunoprecipitation of HA-tagged LARP6 from lung fibroblasts treated with cycloheximide or puromycin, Western blot with anti-myosin IIB

Measured: binding

B1: HA-tagged full-size LARP6 (protein, not shown: small tags and cut ends)
chain: MAQSGGEARPGPKTAVQIRVAIQEAEDVDELEDEEEGAETRGAGDPARYLSPGWGSASEEEPSRGHSGTTASGGENEREDLEQEWKPPDEELIKKLVDQIEFYFSDENLEKDAFLLKHVRRNKLGYVSVKLLTSFKKVKHLTRDWRTTAHALKYSVVLELNEDHRKVRRTTPVPLFPNENLPSKMLLVYDLYLSPKLWALATPQKNGRVQEKVMEHLLKLFGTFGVISSVRILKPGRELPPDIRRISSRYSQVGTQECAIVEFEEVEAAIKAHEFMITESQGKENMKAVLIGMKPPKKKPAKDKNHDEEPTASIHLNKSLNKRVEELQYMGDESSANSSSDPESNPTSPMAGRRHAATNKLSPSGHQNLFLSPNASPCTSPWSSPLAQRKGVSRKSPLAEEGRLNCSTSPEIFRKCMDYSSDSSVTPSGSPWVRRRRQAEMGTQEKSPGTSPLLSRKMQTADGLPVGVLRLPRGPDNTRGFHGHERSRACV
binds: [1] | [2] | [3] | [4] | [5] | [6] | [7]
